{"source": "PubChem BioAssay AID1259308 (NCATS, 2017)", "screen": "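Candidate targets for better recombinant protein yield in mammalian cells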 (primary screen)", "cells": "human HEK293 embryonic kidney cells stably expressing firefly luciferase (HEK-CMV-Luc2-Hygro)", "knock-down reagent": "single siRNA against human genes, 0.8 pmol siRNA per well", "duration": "72 h", "measured": "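Reporter luminescence and viable-cell signal on separate replicate plates, given as percent of non-targeting control and median/MAD z-scores, plus per-cell luciferase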", "scale": "total luciferase, z-score and total luciferase, % of control: higher = more reporter protein produced", "active means": "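An siRNA counts as active if its total luciferase robust z-score exceeds 3; genes with two or more such siRNAs out of three were retested with fresh siRNAs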", "calls": "active = raised luciferase; inactive = no rise", "note": "Shown is a random part of about 59,000 deposited reagents. About 1,510 of all reagents (2.6%) count as active. 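Calls use total luciferase alone and ignore viability, so some active siRNAs may act by altering cell number.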 A number with no mark means an inactive call. Reagents against one gene are numbered here. Not all columns of the deposit are shown."}
{"target gene": "DUSP8", "siRNA no.": 1, "total luciferase, z-score": -1.16, "total luciferase, % of control": 58.8}
{"target gene": "DUSP8", "siRNA no.": 2, "total luciferase, z-score": 0.132, "total luciferase, % of control": 84.5}
{"target gene": "DUSP8", "siRNA no.": 3, "total luciferase, z-score": -1.76, "total luciferase, % of control": 46.8}
{"target gene": "ARRDC3", "siRNA no.": 1, "total luciferase, z-score": 0.698, "total luciferase, % of control": 95.8}
{"target gene": "ARRDC3", "siRNA no.": 2, "total luciferase, z-score": -0.436, "total luciferase, % of control": 73.2}
{"target gene": "ARRDC3", "siRNA no.": 3, "total luciferase, z-score": -1.2, "total luciferase, % of control": 58.1}
{"target gene": "CKAP2", "siRNA no.": 1, "total luciferase, z-score": -0.483, "total luciferase, % of control": 72.3}
{"target gene": "CKAP2", "siRNA no.": 2, "total luciferase, z-score": -0.48, "total luciferase, % of control": 72.3}
{"target gene": "CKAP2", "siRNA no.": 3, "total luciferase, z-score": 1.06, "total luciferase, % of control": 103}
{"target gene": "APPBP2", "siRNA no.": 1, "total luciferase, z-score": 0.239, "total luciferase, % of control": 86.6}
{"target gene": "APPBP2", "siRNA no.": 2, "total luciferase, z-score": -0.248, "total luciferase, % of control": 77}
{"target gene": "APPBP2", "siRNA no.": 3, "total luciferase, z-score": 1.8, "total luciferase, % of control": 118}

A few values from above:
For “total luciferase, z-score”, ARRDC3 #3 has -1.2
ARRDC3 #2, total luciferase, z-score: -0.436
CKAP2 #2, total luciferase, z-score = -0.48

More reagents:
{"target gene": "UBE2I", "siRNA no.": 1, "total luciferase, z-score": -0.959, "total luciferase, % of control": 62.8}
{"target gene": "UBE2I", "siRNA no.": 2, "total luciferase, z-score": 2.46, "total luciferase, % of control": 131}
{"target gene": "UBE2I", "siRNA no.": 3, "total luciferase, z-score": -0.345, "total luciferase, % of control": 75}
{"target gene": "PLD5", "siRNA no.": 1, "total luciferase, z-score": -0.759, "total luciferase, % of control": 66.8}
{"target gene": "PLD5", "siRNA no.": 2, "total luciferase, z-score": 0.118, "total luciferase, % of control": 84.2}
{"target gene": "PLD5", "siRNA no.": 3, "total luciferase, z-score": -0.568, "total luciferase, % of control": 70.6}
{"target gene": "CCDC71L", "siRNA no.": 1, "total luciferase, z-score": 0.254, "total luciferase, % of control": 86.9}
{"target gene": "CCDC71L", "siRNA no.": 2, "total luciferase, z-score": 0.0802, "total luciferase, % of control": 83.5}
{"target gene": "CCDC71L", "siRNA no.": 3, "total luciferase, z-score": 0.394, "total luciferase, % of control": 89.7}
